# Data from PubChem BioAssay AID504834 (National Center for Advancing Translational Sciences (NCATS), 2011).
# The campaign covered roughly 320,000 compounds. About 22,000 (6.9%) were called active. This list was built around the results that the source calls inconclusive (neither active nor inactive); the mix of calls is not that of the screen. Calls follow the shape of the dose curve; as a rule, active = well fitted inhibition curve with a large enough effect; inconclusive = small, poorly fitted or top-dose-only effect, or another doubt; inactive = no such curve, though single readings can be large or run the other way. Potencies beside an inconclusive call are fits to weak or partial responses and may not hold up.
# Test: Primary qHTS for delayed death inhibitors of the malarial parasite plastid, 96 hour incubation
# Conditions: P. falciparum luciferase reporter growth; series mostly up to 28.7 µM; activity change, negative = inhibition: at the top concentration
# Procedure, shortened: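 Parasite growth measured via integrated firefly luciferase reporter in P. falciparum. Infected erythrocytes at 2% hematocrit, 0.05% parasitemia final were treated 96 hours at 37 C under 5% CO2, and luminescence was read.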
# % is scaled to controls: 0 for no effect and ±100 for the full control effect; potency is read from the fitted curve at half-maximal effect.
Compound,Potency,"activity change, negative = inhibition"
Cn1nc(C(=O)N2CCN(S(=O)(=O)/C=C/c3ccccc3)CC2)c2ccccc2c1=O,"inconclusive: 9.28 µM [inhibitor, single point]",
O=C(N/N=C/c1cn(-c2ccccc2)nc1-c1ccc(F)cc1)c1ccc(Br)o1,"inconclusive: 0.104 µM [inhibitor, partial curve, poor fit]",
FC(F)(F)c1cccc(-c2nc3nc(Cl)c(Cl)nc3[nH]2)c1,,inactive: -99.3%
COc1ccc(C(=O)NCC(=O)N2CCCC(C(F)(F)F)C2)cc1OC (centres undefined),"inconclusive: 13.1 µM [inhibitor, single point]",
COc1ccccc1CCNC(=O)c1ccc(NC(=O)CC2SC(N3CCCC3)=NC2=O)cc1 (centres undefined),"inconclusive: 8.28 µM [inhibitor, partial curve]",
COc1cccc(CN2CC(C(=O)NCCCn3ccnc3C)CCC2=O)c1 (centres undefined),"inconclusive: 0.294 µM [inhibitor, full curve, poor fit]",
O=C1/C(=C/c2cccc(Cl)c2)SC(=S)N1CCC(=O)N1CCCCC1CCO (centres undefined),"inconclusive: 11.7 µM [inhibitor, single point]",
CCOc1cc(OCC)cc(C(=O)O)c1,,inactive: -18.7%
Nc1c(-c2ccccc2)c(CN2CCOCC2)nn1-c1ccccc1,"inconclusive: 16.5 µM [inhibitor, single point]",
Cc1ccccc1NC(=O)CN1CCOCC1,"inconclusive: 18.5 µM [inhibitor, single point]",
CCOC(=O)C1CCN(c2cc(=O)n(-c3ccccc3Cl)c(=O)[nH]2)CC1,,inactive: 13.2%
Cc1cccc(N2CCN(C(=S)Nc3ccc4nc(N5CCN(C)CC5)cc(C)c4c3)CC2C)c1 (centres undefined),active: 9.28 µM,
CCn1c(SCC(=O)NCc2cccs2)nc2c1c(=O)n(C)c(=O)n2C,"inconclusive: 18.5 µM [inhibitor, single point]",
COc1ccc(CN(C(=O)c2cccs2)C(C(=O)NC2CCCCC2)c2ccc3ncccc3c2)cc1 (centres undefined),active: 10.4 µM,
CCc1c(C)sc(NC(=O)c2ccoc2C)c1C(N)=O,"inconclusive: 18.5 µM [inhibitor, single point]",
CCOC(=O)c1ccccc1NC(=O)CSc1nc2ccncc2[nH]1,"inconclusive: 10.4 µM [inhibitor, single point]",
COc1ccc(N2CCN(C(=O)CN(C)S(=O)(=O)c3cc(C)ccc3OC)CC2)cc1,,inactive: -20.9%
Cc1ccccc1CSCCNC(=O)c1ccccc1,,inactive: 0%
O=C(CSc1nnc(Cc2cc(=O)[nH]c(=O)[nH]2)n1-c1ccc(Cl)cc1)NCC1CCCO1 (centres undefined),"inconclusive: 0.828 µM [inhibitor, full curve]",
O=C(c1ccccn1)N(Cc1ccco1)C1(C(=O)NC2CCCC2)CCCCC1,"inconclusive: 18.5 µM [inhibitor, single point]",
C/C(=N\NC(=O)c1cccc(Cl)c1)c1cccc(NC(=O)C(C)C)c1,"inconclusive: 10.4 µM [inhibitor, single point]",
COc1cc(/C=C2\Oc3cc(O)ccc3C2=O)ccc1O,"inconclusive: 0.0185 µM [inhibitor, full curve]",

Compound,Potency,"activity change, negative = inhibition"
C(=N\Nc1nc(N2CCCCCC2)nc(N2CCCCCC2)n1)/c1ccccc1,"inconclusive: 14.7 µM [inhibitor, single point]",
COc1cc(C(=O)Nc2ccc(Br)cc2C(=O)c2ccccc2Cl)cc(OC)c1OC,"inconclusive: 4.15 µM [inhibitor, partial curve, poor fit]",
CC(C)(C)NC(=O)C(c1ccc(O)cc1)N(C(=O)CCC(=O)Nc1ccccn1)c1ccc(F)cc1 (centres undefined),"inconclusive: 8.28 µM [inhibitor, partial curve]",
CCOc1cc(Br)c(C(=O)O)cc1OCC,,inactive: 4.62% [at 5.75 µM]
O=C(NCCCN1CCOCC1)c1ccc2c(c1)N(Cc1ccc(F)cc1)CCS2,"inconclusive: 18.5 µM [inhibitor, single point]",
COc1ccc(C(=O)Nc2c(C)csc2C(=O)O)cc1,"inconclusive: 3.7 µM [inhibitor, partial curve, poor fit]",
Cc1ccsc1CNCCc1ccc(F)cc1,"inconclusive: 18.5 µM [inhibitor, single point]",
CS(=O)(=O)Nc1ccc(S(=O)(=O)N2CCCCCC2)cc1,"inconclusive: 9.28 µM [inhibitor, partial curve, poor fit]",
C#CCOCCOCCOCCNc1nc(N2CCN(C(=O)[C@H](CCC(=O)O)n3cc(C(N)[C@H](C)CC)nn3)CC2)nc(N2CCN(C(=O)[C@H](Cc3ccc(O)cc3)n3cc(C(N)[C@H](C)CC)nn3)CC2)n1 (some centres undefined),,inactive: 7.07%
Fc1cc(NCc2ccccc2)nc(NCc2ccccc2)n1,"inconclusive: 16.5 µM [inhibitor, single point]",
Cc1ccccc1NC1=C(Cl)C(=O)N(C2CCCCC2)C1=O,"inconclusive: 18.5 µM [inhibitor, single point]",
O=C(CSc1nnc(-c2ccccc2F)o1)N1CCNC1=O,,inactive: 87.5%
COc1ccc(OC)c(Nc2ncnc3c2cnn3-c2ccccc2)c1,,inactive: 21.9%
Cc1ccc(NC(=O)C2CC(=O)NC(Nc3cccc(C)c3)=N2)cc1 (centres undefined),active: 2.08 µM,
Fc1ccc(-c2cc(C(F)(F)F)nc(-n3cc(Cl)cn3)n2)cc1,,inactive: -17.9%
Cc1cc(N2CCCCC2)nc(-c2ccc(Br)cc2)n1,"inconclusive: 11.7 µM [inhibitor, partial curve]",
COc1ccc(C=O)cc1CSc1nnc(COc2cccc3cccnc23)o1,,inactive: 135%
O=C(Nc1ccccc1)C1CC(=O)n2c(nc3ccccc32)N1 (centres undefined),,inactive: 16.1%
O=C(Nc1cc(S(=O)(=O)N2CCOCC2)ccc1N1CCCC1)c1cnccn1,"inconclusive: 10.4 µM [inhibitor, single point]",
O=C(NCCCN1CCCC1=O)C(=O)NCC1OCCN1S(=O)(=O)c1ccc(Cl)cc1 (centres undefined),,inactive: 15.9%
O=C(Nc1ccc2c(c1)Cc1ccccc1-2)c1ccncc1,"inconclusive: 13.1 µM [inhibitor, single point]",
OC(Cc1nc2ccccc2[nH]1)c1ccccc1Cl (centres undefined),"inconclusive: 0.0465 µM [inhibitor, full curve, poor fit]",
O=C1CCCS(=O)(=O)c2ccccc21,,inactive: 1.46%

# Arranged by number of heavy atoms (largest number first): some entries from above.
Compound,Potency,"activity change, negative = inhibition"
COc1ccc(N2CCN(C(=O)CN(C)S(=O)(=O)c3cc(C)ccc3OC)CC2)cc1,,inactive: -20.9%
O=C(Nc1cc(S(=O)(=O)N2CCOCC2)ccc1N1CCCC1)c1cnccn1,"inconclusive: 10.4 µM [inhibitor, single point]",
COc1ccc(OC)c(Nc2ncnc3c2cnn3-c2ccccc2)c1,,inactive: 21.9%
O=C(Nc1ccccc1)C1CC(=O)n2c(nc3ccccc32)N1 (centres undefined),,inactive: 16.1%
OC(Cc1nc2ccccc2[nH]1)c1ccccc1Cl (centres undefined),"inconclusive: 0.0465 µM [inhibitor, full curve, poor fit]",

# Continuation:

Compound,Potency,"activity change, negative = inhibition"
COc1ccc(S(=O)(=O)NCCC(=O)NCc2cccs2)cc1,"inconclusive: 14.7 µM [inhibitor, single point]",
COc1ccc(CCNC(=O)COC(=O)c2ccc(C)s2)cc1OC,"inconclusive: 18.5 µM [inhibitor, single point]",
COc1ccc(CC(=O)NCc2csc(-c3cccs3)n2)cc1OC,"inconclusive: 18.5 µM [inhibitor, single point]",
O=C(Nc1ccccc1Cl)C(Cl)C(=O)c1ccccc1 (centres undefined),,inactive: 5.31%
CC(C)OCCCN1CC(=O)N2C(c3cccc([N+](=O)[O-])c3)c3[nH]c4ccccc4c3C[C@H]2C1=O (some centres undefined),"inconclusive: 10.4 µM [inhibitor, partial curve]",
COc1ccc(-c2coc3cc(O)ccc3c2=O)cc1O,,inactive: -5.94%
Cc1ccc(NC(=O)C2CCCN(S(=O)(=O)c3cccc4nonc34)C2)cc1 (centres undefined),active: 2.62 µM,
Cc1cc(CNC(=S)Nc2cccc(Cl)c2Cl)nn1C,,inactive: -1.31%
COc1ccccc1CNC(=O)COC(=O)c1cccc(S(=O)(=O)N2CCCCC2)c1,"inconclusive: 0.0329 µM [inhibitor, full curve, poor fit]",
CC(=O)Nc1cccc(C(=O)/C=C/c2ccc(C)cc2)c1,"inconclusive: 0.37 µM [inhibitor, partial curve, poor fit]",
CCOc1ccc(N2C(=O)Nc3ccc(Br)cc3C2(O)C(=O)NCCCN(C)C)cc1 (centres undefined),"inconclusive: 7.38 µM [inhibitor, partial curve]",
CC(C)C(=O)N1CCN(c2nc(-c3ccccc3)c3c(c2C#N)CC(C)(C)OC3)CC1,"inconclusive: 9.28 µM [inhibitor, partial curve, poor fit]",
CSc1ncc(Cl)c(C(=O)Nc2c(C)cccc2C)n1,active: 4.15 µM,
COc1ccccc1C(=O)Nn1c(C2CCC2)nc2ccccc2c1=O,"inconclusive: 11.7 µM [inhibitor, single point]",
CN1C(=O)Cc2cc(S(=O)(=O)N3CCN(c4ccc(Cl)cc4)CC3)ccc21,,inactive: 6.74%
CC1(C)SC(=S)N(c2ccccc2)C1/[N+]([O-])=C/c1cccc([N+](=O)[O-])c1 (centres undefined),"inconclusive: 18.5 µM [inhibitor, single point]",
CCCCOc1ccc(S(=O)(=O)NCc2csc(C)n2)cc1,active: 10.4 µM,
COc1cc(C(=O)Nc2ccc3nc(N4CCOCC4)sc3c2)cc(OC)c1OC,"inconclusive: 11.7 µM [inhibitor, single point]",
CCCc1cc(=O)oc2cc(OCC(=O)N3CCN(C(=O)C4COc5ccccc5O4)CC3)ccc12 (centres undefined),active: 11.7 µM,
Cc1ccnc(NC(=O)c2ccc(S(=O)(=O)N3CCCCCC3)cc2)c1,"inconclusive: 16.5 µM [inhibitor, single point]",
Cc1ccccc1N/N=C/c1c(C)nc2ccccn12,"inconclusive: 11.7 µM [inhibitor, single point]",
O=C(CSc1nc2scc(-c3ccco3)c2c(=O)n1-c1ccccc1)N1CCOCC1,"inconclusive: 13.1 µM [inhibitor, partial curve, poor fit]",
CC(=O)Nc1nc(C)c(Oc2ccccc2)c(=O)[nH]1,"inconclusive: 18.5 µM [inhibitor, single point]",
